The text below walks through data of article PMC8097444 (Antimicrobial Agents and Chemotherapy, 2021).

SMILES strings stand for the structures.

In this assay the target is SARS-CoV-2 PL^pro (Severe acute respiratory syndrome coronavirus 2, UniProt P0DTD1). In words: SARS-CoV-2 PLpro fluorogenic inhibition assay: screening at 10 μM and IC50. It counts as biochemical.

In the case of `CNCCCC12CCC(c3ccccc31)c1ccccc12` [maprotiline], the IC50 turned out to be 9.7 ± 0.3 µM.

Broadly, the IC50 is the concentration that gives 50% inhibition.
